Results deposited as PubChem BioAssay AID1224830 (NIAID, 2016)
Here is one part, drawn at random, of about 18,000 deposited reagents. Over the whole deposit, about 2,900 (16%) were called active. 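Calls are made per well; low scores hint the gene aids the LPS response, high scores that it dampens it.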 Repeated entries: four replicate wells of each siRNA pool. Reagent sequences are not shown.

- Screen: 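Regulators of TLR4 signalling towards TNF-alpha in macrophage-like cells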 (primary screen)
- Cell system: human THP-1 monocytic leukaemia cells, TNF dual-luciferase reporter clone, PMA-differentiated to macrophage-like cells
- Reagent: siRNA pool against human genes, 50 nM
- Duration: LPS for 4 h, given about 3 days after siRNA transfection
- Conditions: bacterial LPS (TLR4 ligand), 10 ng/ml
- Read-out: 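TNF firefly reporter luminescence divided by renilla, normalised to the plate median, then turned into a robust z-score for each replicate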
- Direction: TNF reporter robust z-score: higher = stronger TNF reporter response to LPS
- Hit rule: 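Each well counts as active if its z-score is over 2.8 or under -1.5; controls are left without a call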

| target gene | PubChem SID | TNF reporter robust z-score | Call |
| --- | --- | --- | --- |
| BCL6 (BCL6 transcription repressor) | SID315447529 | -1.75 | active |
| BCL6 (BCL6 transcription repressor) | SID315447529 | -1.93 | active |
| BCL6 (BCL6 transcription repressor) | SID315447529 | -1.73 | active |
| BCL6 (BCL6 transcription repressor) | SID315447529 | -2.01 | active |
| TAGAP (T cell activation RhoGTPase activating protein) | SID315461426 | 0.16 | inactive |
| TAGAP (T cell activation RhoGTPase activating protein) | SID315461426 | 1.38 | inactive |
| TAGAP (T cell activation RhoGTPase activating protein) | SID315461426 | -0.55 | inactive |
| TAGAP (T cell activation RhoGTPase activating protein) | SID315461426 | 1.17 | inactive |
| SKP2 (S-phase kinase associated protein 2) | SID315451442 | 0.08 | inactive |
| SKP2 (S-phase kinase associated protein 2) | SID315451442 | -0.87 | inactive |
| SKP2 (S-phase kinase associated protein 2) | SID315451442 | -0.67 | inactive |
| SKP2 (S-phase kinase associated protein 2) | SID315451442 | -0.1 | inactive |
| YTHDF1 (YTH N6-methyladenosine RNA binding protein F1) | SID315457261 | 1.96 | inactive |
| YTHDF1 (YTH N6-methyladenosine RNA binding protein F1) | SID315457261 | 2.09 | inactive |
| YTHDF1 (YTH N6-methyladenosine RNA binding protein F1) | SID315457261 | 0.35 | inactive |
| YTHDF1 (YTH N6-methyladenosine RNA binding protein F1) | SID315457261 | 0.54 | inactive |
| HMBS (hydroxymethylbilane synthase) | SID315449225 | 1.56 | inactive |
| HMBS (hydroxymethylbilane synthase) | SID315449225 | 2.85 | active |
| HMBS (hydroxymethylbilane synthase) | SID315449225 | 1.71 | inactive |
| HMBS (hydroxymethylbilane synthase) | SID315449225 | 4.42 | active |
| RAB4A (RAB4A, member RAS oncogene family) | SID315451010 | -1.06 | inactive |
| RAB4A (RAB4A, member RAS oncogene family) | SID315451010 | -0.36 | inactive |
| RAB4A (RAB4A, member RAS oncogene family) | SID315451010 | -0.66 | inactive |
| RAB4A (RAB4A, member RAS oncogene family) | SID315451010 | -0.57 | inactive |
| PISD (phosphatidylserine decarboxylase) | SID315455421 | -0.7 | inactive |
| PISD (phosphatidylserine decarboxylase) | SID315455421 | -0.43 | inactive |
| PISD (phosphatidylserine decarboxylase) | SID315455421 | -0.28 | inactive |
| PFN4 (profilin family member 4) | SID315464357 | 1.96 | inactive |
| PFN4 (profilin family member 4) | SID315464357 | 2.54 | inactive |
| PFN4 (profilin family member 4) | SID315464357 | 1.1 | inactive |
| PFN4 (profilin family member 4) | SID315464357 | 2.63 | inactive |
| COPB2 (coat protein complex I subunit beta 2) | SID315453171 | -0.74 | inactive |
| COPB2 (coat protein complex I subunit beta 2) | SID315453171 | -0.16 | inactive |
| COPB2 (coat protein complex I subunit beta 2) | SID315453171 | -0.65 | inactive |
| COPB2 (coat protein complex I subunit beta 2) | SID315453171 | -0.3 | inactive |
| ZNF273 (zinc finger protein 273) | SID315454365 | 0.66 | inactive |
| ZNF273 (zinc finger protein 273) | SID315454365 | 1.54 | inactive |
| ZNF273 (zinc finger protein 273) | SID315454365 | -0.49 | inactive |
| ZNF273 (zinc finger protein 273) | SID315454365 | -0.73 | inactive |
| ARID2 (AT-rich interaction domain 2) | SID315462974 | 1.45 | inactive |
| ARID2 (AT-rich interaction domain 2) | SID315462974 | 0.73 | inactive |
| ARID2 (AT-rich interaction domain 2) | SID315462974 | -0.19 | inactive |
| ARID2 (AT-rich interaction domain 2) | SID315462974 | 0.12 | inactive |
| GPR32 (G protein-coupled receptor 32) | SID315449007 | -1.06 | inactive |
| GPR32 (G protein-coupled receptor 32) | SID315449007 | 0.91 | inactive |
| GPR32 (G protein-coupled receptor 32) | SID315449007 | -0.22 | inactive |
| GPR32 (G protein-coupled receptor 32) | SID315449007 | 1.48 | inactive |
| SEZ6 (seizure related 6 homolog) | SID315461640 | 0.49 | inactive |
| SEZ6 (seizure related 6 homolog) | SID315461640 | 0.69 | inactive |
| SEZ6 (seizure related 6 homolog) | SID315461640 | 0.56 | inactive |
| SEZ6 (seizure related 6 homolog) | SID315461640 | 1.14 | inactive |
| PRMT2IP (PRMT2 interacting protein) | SID315458149 | -0.46 | inactive |
| PRMT2IP (PRMT2 interacting protein) | SID315458149 | 0.65 | inactive |
| PRMT2IP (PRMT2 interacting protein) | SID315458149 | -0.24 | inactive |
| PRMT2IP (PRMT2 interacting protein) | SID315458149 | -0.45 | inactive |
| OR2AG1 (olfactory receptor family 2 subfamily AG member 1) | SID315462206 | 0.2 | inactive |
| OR2AG1 (olfactory receptor family 2 subfamily AG member 1) | SID315462206 | 0.55 | inactive |
| OR2AG1 (olfactory receptor family 2 subfamily AG member 1) | SID315462206 | -0.06 | inactive |
| OR2AG1 (olfactory receptor family 2 subfamily AG member 1) | SID315462206 | 0.46 | inactive |
| HMGN5 (high mobility group nucleosome binding domain 5) | SID315459273 | -1.53 | active |
| HMGN5 (high mobility group nucleosome binding domain 5) | SID315459273 | -1.54 | active |
| HMGN5 (high mobility group nucleosome binding domain 5) | SID315459273 | -1.77 | active |
| HMGN5 (high mobility group nucleosome binding domain 5) | SID315459273 | -1.42 | inactive |
| EEFSEC (eukaryotic elongation factor, selenocysteine-tRNA specific) | SID315458736 | -0.54 | inactive |
| EEFSEC (eukaryotic elongation factor, selenocysteine-tRNA specific) | SID315458736 | -0.2 | inactive |
| EEFSEC (eukaryotic elongation factor, selenocysteine-tRNA specific) | SID315458736 | -0.19 | inactive |
| EEFSEC (eukaryotic elongation factor, selenocysteine-tRNA specific) | SID315458736 | -0.67 | inactive |
| ARID3B (AT-rich interaction domain 3B) | SID315454241 | -0.49 | inactive |
| ARID3B (AT-rich interaction domain 3B) | SID315454241 | -1.29 | inactive |
| ARID3B (AT-rich interaction domain 3B) | SID315454241 | -0.26 | inactive |
| ARID3B (AT-rich interaction domain 3B) | SID315454241 | -0.46 | inactive |
| SLC22A14 | SID315453248 | -0.75 | inactive |
| SLC22A14 | SID315453248 | 0.03 | inactive |
| SLC22A14 | SID315453248 | -0.79 | inactive |
| SLC22A14 | SID315453248 | 0.22 | inactive |

3 entries from above, arranged by “TNF reporter robust z-score”, high to low.
| target gene | PubChem SID | TNF reporter robust z-score | Call |
| --- | --- | --- | --- |
| RAB4A (RAB4A, member RAS oncogene family) | SID315451010 | -0.36 | inactive |
| RAB4A (RAB4A, member RAS oncogene family) | SID315451010 | -0.66 | inactive |
| RAB4A (RAB4A, member RAS oncogene family) | SID315451010 | -1.06 | inactive |
